Where a name gives a salt, the structure may show the parent alone. ± gives the standard deviation of the averaged measurements. The list shows a part of the results. The data scatter; read single values as rough.

The assay deals with hAMSC donor 2. The assay can be described thus: Hoechst total cell count ratio vs vehicle control; hAMSC are human adipose-derived mesenchymal stem cells given an EGFP-luciferase plasmid by lipofection; higher = more cells (less toxicity). The settings on record: priming compound concentration 13 µM.
For the compound `CN1CCC[C@H]1c1cccnc1` [Nicotine], the “Hoechst total cell count ratio” value amounted to 1.18 ± 0.2.

Turning to `CC1(C)O[C@@H]2[C@@H](CO[C@@]3(COS(N)(=O)=O)OC(C)(C)O[C@@H]23)O1` [Topiramate], the “Hoechst total cell count ratio” value stood at 1.09 ± 0.14. The same measure for `Nc1ncnc2c1ncn2[C@@H]1O[C@H](CO)C[C@@H]1O` [3'-Deoxydenosine]: 1.07 ± 0.26. The same measure for `O=C1c2c(O)cc(O)cc2O[C@H](c2ccc(O)c(O)c2)[C@H]1O` (racemic) [Taxifolin-(+/-)]: 0.838 ± 0.18; for `O=C(c1ccccc1)c1ccc2n1CCC2C(=O)O` (stereo not drawn) [Ketorolac tromethamine]: 1.37 ± 0.12; for `CC(=O)N[C@H]1[C@H]([C@H](O)[C@H](O)CO)OC(C(=O)O)=C[C@@H]1NC(=N)N` [Zanamivir hydrate]: 1.18 ± 0.063. Turning to `CCOc1cc(CC(=O)N[C@@H](CC(C)C)c2ccccc2N2CCCCC2)ccc1C(=O)O` [Repaglinide], the “Hoechst total cell count ratio” value was found to be 0.76 ± 0.12. The same measure for `CCn1cc(C(=O)O)c(=O)c2cc(F)c(N3CCN(C)CC3)cc21` [Pefloxacin mesylate]: 0.94 ± 0.048.
